According to the supplement of paper PMC10849652:
The list shows a part of the results.

Amino acid sequences for entries named in this document (tags omitted). A change or cut given only in a name is not applied to a line headed by its entry.
UniProt Q9GZP9: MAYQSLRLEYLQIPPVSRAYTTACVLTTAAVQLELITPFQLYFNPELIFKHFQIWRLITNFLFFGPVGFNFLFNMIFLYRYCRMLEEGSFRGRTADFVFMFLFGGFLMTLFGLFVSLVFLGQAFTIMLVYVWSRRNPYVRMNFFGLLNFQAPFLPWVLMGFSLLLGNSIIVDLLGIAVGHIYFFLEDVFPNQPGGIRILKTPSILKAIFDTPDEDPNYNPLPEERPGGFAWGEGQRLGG
UniProt Q9Y394: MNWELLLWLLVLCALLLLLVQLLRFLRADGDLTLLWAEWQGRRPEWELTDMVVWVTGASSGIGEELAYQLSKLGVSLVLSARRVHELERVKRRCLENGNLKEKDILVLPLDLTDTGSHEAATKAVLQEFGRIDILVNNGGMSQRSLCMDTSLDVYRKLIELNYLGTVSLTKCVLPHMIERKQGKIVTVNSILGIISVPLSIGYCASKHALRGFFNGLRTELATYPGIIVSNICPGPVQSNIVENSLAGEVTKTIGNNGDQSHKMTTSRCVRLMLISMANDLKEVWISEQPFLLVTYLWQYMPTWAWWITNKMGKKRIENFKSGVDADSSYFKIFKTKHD
UniProt P00374: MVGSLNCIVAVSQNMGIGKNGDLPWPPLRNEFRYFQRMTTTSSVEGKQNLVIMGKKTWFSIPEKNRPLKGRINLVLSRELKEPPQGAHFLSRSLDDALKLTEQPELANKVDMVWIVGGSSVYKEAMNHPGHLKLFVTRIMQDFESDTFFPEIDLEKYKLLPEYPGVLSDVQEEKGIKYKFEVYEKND
UniProt Q6IAN0: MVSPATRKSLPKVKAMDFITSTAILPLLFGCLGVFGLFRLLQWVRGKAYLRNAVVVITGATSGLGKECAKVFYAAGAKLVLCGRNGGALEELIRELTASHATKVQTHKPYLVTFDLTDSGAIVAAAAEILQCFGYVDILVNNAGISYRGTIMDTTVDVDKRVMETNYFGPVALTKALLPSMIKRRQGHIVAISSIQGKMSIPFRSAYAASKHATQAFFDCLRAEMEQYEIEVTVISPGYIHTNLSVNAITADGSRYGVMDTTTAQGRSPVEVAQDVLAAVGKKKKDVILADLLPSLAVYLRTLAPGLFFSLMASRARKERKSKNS
UniProt Q16531, whole entry, looked up: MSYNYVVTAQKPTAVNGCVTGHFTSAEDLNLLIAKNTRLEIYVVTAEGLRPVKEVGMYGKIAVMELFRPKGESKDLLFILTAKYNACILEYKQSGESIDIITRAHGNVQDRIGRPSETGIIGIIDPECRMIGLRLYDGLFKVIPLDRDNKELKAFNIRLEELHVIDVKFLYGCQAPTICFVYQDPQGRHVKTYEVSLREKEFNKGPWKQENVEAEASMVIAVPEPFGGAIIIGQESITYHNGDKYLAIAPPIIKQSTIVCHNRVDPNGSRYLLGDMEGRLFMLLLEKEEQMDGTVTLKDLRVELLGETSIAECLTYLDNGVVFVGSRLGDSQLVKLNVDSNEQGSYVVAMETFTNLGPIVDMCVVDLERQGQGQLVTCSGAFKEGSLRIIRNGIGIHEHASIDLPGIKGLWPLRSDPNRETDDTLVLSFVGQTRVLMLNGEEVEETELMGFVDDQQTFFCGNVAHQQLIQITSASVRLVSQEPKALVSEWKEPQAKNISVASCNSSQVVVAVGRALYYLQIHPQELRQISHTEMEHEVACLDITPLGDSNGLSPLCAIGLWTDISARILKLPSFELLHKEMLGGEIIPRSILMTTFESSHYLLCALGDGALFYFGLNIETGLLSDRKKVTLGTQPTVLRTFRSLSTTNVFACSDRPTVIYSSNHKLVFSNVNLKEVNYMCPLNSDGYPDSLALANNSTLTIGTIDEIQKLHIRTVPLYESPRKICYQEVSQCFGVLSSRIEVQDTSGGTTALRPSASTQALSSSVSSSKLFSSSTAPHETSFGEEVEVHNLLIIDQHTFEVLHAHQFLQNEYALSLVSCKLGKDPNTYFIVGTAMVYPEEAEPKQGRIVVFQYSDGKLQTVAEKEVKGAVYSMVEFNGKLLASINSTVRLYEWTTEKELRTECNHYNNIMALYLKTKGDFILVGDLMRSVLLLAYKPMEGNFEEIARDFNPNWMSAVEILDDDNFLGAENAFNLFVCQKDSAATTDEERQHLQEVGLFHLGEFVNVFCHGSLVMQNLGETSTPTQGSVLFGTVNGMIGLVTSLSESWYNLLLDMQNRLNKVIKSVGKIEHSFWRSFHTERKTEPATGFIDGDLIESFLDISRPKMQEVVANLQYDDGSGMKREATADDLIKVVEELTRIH
UniProt O00273: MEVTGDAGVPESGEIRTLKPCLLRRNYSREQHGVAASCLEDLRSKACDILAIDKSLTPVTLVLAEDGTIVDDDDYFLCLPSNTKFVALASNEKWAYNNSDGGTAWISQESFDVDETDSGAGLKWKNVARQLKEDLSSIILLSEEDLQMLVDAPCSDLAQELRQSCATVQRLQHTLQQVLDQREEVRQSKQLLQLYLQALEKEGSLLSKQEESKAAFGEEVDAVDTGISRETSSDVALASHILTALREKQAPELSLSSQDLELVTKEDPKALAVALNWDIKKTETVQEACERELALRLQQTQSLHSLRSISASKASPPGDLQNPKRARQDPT
UniProt Q8IX18: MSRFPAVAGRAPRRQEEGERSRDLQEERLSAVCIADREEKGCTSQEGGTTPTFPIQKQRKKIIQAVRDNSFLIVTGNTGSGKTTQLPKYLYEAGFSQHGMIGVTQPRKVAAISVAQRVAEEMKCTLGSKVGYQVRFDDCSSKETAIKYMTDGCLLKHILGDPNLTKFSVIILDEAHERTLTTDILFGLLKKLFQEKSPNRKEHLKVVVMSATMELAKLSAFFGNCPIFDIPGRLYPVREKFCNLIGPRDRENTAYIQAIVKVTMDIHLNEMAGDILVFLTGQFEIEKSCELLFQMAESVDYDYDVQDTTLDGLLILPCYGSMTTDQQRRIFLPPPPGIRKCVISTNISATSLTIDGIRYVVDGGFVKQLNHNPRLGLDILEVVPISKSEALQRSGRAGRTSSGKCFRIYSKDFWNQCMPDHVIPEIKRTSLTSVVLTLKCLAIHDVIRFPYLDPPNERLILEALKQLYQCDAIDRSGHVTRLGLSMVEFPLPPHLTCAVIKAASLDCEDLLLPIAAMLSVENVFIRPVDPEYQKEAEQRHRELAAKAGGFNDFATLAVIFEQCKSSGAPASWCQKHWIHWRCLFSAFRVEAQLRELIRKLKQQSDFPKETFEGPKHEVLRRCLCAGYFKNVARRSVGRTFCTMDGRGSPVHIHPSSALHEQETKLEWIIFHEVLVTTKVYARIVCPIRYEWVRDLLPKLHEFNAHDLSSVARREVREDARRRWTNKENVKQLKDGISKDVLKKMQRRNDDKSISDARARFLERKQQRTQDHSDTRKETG
UniProt Q8NDZ4: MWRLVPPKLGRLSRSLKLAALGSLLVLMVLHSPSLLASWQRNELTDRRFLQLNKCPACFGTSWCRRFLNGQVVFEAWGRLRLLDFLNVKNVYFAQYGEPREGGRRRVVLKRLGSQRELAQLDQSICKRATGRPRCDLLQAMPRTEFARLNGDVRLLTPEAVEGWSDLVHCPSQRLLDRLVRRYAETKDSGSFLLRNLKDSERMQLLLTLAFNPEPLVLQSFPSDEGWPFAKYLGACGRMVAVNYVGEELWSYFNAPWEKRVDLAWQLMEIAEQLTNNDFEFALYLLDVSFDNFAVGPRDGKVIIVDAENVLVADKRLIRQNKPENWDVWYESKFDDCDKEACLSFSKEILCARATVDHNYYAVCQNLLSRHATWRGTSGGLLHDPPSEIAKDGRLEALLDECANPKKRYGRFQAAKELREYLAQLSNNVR
UniProt Q5TDH0: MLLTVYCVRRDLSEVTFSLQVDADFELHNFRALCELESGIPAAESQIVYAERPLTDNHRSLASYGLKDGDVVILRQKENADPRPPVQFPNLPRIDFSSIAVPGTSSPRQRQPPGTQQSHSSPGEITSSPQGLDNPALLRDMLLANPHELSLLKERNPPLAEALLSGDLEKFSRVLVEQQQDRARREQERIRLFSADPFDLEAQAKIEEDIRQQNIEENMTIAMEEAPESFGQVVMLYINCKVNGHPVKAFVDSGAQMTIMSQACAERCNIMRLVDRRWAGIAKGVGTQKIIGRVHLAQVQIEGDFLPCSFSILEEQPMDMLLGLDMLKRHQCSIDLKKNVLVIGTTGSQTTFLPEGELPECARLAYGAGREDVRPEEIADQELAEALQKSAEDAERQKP
UniProt O00148, whole entry, looked up: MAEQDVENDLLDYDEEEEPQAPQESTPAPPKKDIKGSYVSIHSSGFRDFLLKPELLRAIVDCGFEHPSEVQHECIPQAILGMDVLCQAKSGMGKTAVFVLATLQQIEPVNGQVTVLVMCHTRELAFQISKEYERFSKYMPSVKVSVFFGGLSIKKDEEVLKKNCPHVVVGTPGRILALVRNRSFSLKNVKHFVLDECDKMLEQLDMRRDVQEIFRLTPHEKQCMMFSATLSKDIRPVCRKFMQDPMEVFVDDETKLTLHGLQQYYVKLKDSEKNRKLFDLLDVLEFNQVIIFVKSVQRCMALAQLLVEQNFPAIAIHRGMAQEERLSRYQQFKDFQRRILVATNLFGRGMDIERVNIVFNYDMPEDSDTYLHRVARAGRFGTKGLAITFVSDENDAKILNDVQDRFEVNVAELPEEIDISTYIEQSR
UniProt O00571: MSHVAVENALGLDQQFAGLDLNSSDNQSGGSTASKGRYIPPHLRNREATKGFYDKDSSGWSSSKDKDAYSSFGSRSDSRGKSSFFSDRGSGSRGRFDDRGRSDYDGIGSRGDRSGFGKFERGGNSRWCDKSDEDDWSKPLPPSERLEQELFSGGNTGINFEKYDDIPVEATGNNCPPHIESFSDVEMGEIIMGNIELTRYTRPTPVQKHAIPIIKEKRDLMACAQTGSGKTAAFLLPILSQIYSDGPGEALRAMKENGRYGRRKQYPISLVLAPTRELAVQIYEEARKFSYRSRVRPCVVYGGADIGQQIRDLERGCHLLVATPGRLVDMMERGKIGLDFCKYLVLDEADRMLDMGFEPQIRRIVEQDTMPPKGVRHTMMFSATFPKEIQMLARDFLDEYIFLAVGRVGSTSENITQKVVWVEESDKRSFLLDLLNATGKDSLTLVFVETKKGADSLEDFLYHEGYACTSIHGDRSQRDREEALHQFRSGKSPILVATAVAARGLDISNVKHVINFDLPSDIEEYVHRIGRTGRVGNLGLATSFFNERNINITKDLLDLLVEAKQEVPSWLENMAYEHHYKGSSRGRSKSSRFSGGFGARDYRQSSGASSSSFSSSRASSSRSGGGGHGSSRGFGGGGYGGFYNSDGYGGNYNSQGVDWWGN
UniProt Q9NW81: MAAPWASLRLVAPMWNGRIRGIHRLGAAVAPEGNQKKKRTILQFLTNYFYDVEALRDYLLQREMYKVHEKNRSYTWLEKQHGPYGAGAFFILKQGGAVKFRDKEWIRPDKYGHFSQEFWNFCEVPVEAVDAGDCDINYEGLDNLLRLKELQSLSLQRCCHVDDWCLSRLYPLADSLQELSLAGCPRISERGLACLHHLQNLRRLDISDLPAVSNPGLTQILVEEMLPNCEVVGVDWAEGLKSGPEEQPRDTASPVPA
UniProt Q9NY93: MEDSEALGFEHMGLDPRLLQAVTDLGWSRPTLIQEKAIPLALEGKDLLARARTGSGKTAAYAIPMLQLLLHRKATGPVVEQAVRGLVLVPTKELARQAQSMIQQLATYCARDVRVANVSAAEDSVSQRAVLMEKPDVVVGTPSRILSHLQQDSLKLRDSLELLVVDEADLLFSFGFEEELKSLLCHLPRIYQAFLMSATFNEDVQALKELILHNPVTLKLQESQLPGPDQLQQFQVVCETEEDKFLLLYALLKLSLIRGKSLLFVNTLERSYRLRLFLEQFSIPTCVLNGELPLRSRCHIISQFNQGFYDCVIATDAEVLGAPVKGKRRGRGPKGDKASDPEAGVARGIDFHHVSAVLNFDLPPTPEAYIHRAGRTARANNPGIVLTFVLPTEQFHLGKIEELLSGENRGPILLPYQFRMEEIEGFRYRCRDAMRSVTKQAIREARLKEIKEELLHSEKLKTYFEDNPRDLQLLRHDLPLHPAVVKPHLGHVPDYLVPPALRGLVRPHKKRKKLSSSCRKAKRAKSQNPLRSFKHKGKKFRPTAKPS
UniProt P30046: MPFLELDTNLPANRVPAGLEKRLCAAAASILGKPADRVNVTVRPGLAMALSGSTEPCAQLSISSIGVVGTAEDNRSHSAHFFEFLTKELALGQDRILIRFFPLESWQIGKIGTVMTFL
UniProt Q8TCE6, whole entry, looked up: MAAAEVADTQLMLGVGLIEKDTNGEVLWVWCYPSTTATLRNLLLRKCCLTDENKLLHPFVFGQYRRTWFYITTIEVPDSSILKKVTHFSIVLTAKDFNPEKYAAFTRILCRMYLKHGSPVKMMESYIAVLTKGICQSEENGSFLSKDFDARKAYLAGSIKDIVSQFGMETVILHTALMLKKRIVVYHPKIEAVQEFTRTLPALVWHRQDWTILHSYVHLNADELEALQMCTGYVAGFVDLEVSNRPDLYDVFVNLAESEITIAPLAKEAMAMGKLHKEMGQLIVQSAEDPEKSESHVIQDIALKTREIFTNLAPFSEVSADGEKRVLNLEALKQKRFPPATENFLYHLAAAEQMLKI

What was measured:
Assay in all cases: log2 fold change, soluble protein after heating vs DMSO (PISA); higher = thermal stabilisation; K562 cells, 10 uM, 30 min; active = over 0.2 and 3.5 SD of the protein, either way, in both replicates (recomputed)
[1] = compound: C1=CC=C(C=C1)[C@H](COC2=CC3=C(C=C2)NC(=O)N3)NC(=O)C4=CC=CN(C4=O)CC5=CC(=C(C=C5)F)F
In short: (§1)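 Aliquots of K562 cells (2×10^6 cells/mL) treated with 10 μM compound for 30 min were heated for 3 min over 48°C-58°C. After pooling and extraction in PBS with 0.5% NP-40 at 4°C, soluble protein from a 21,000xg, 90 min spin was quantified by TMTpro 16plex LC-MS/MS with channel sums equalised. Thermal stability is expressed against control samples, from duplicates, as a log2 fold change.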

[2] = compound: CC1=C(SC2=C1C(=N[C@H](C3=NN=C(N32)C)CC(=O)N)C4=CC=C(C=C4)Cl)C
In short: as §1

[3] = compound: CC1=C2C(=CC=C1)N=C(N(C2=O)C3=CC=CC=C3C)CN4C=NC5=C(N=CN=C54)N
In short: as §1

[4] = compound: Cc1sc2c(c1C)C(c1ccc(Cl)cc1)=N[C@@H](CC(=O)OC(C)(C)C)c1nnc(C)n1-2
In short: as §1

[5] = compound: c1ccc([C@@H]2C[C@H]2NC2CCNCC2)cc1
In short: as §1

Measured: log2 fold change

DNAJA1 (UniProt P31689)
inactive: [1] 0.01 | [2] 0.03 | [3] 0.037 | [4] -0.033 | [5] 0.029

DDHD1 (UniProt Q8NEL9)
inactive: [1] -0.011

DDX25 (UniProt Q9UHL0)
inactive: [1] 0.155 | [2] -0.089 | [3] -0.383 | [4] -0.209 | [5] 0.128

DMD (UniProt P11532)
inactive: [1] -0.016 | [2] 0.023 | [3] 0.086 | [4] -0.023 | [5] 0.023

Random excerpt: 2 records from the list.
DDHD1 (UniProt Q8NEL9)
inactive: [1] -0.011

DMD (UniProt P11532)
inactive: [1] -0.016 | [2] 0.023 | [3] 0.086 | [4] -0.023 | [5] 0.023

Next entries:

DERL2 (UniProt Q9GZP9)
inactive: [1] -0.001 | [2] -0.139 | [3] 0.054 | [4] -0.005 | [5] 0.034

DHX57 (UniProt Q6P158)
inactive: [1] -0.024 | [2] -0.098 | [3] -0.165 | [4] 0.025 | [5] -0.012

DHRS7 (UniProt Q9Y394)
inactive: [1] 0.046 | [2] 0.006 | [3] -0.005 | [4] -0.008 | [5] 0.026

DICER1 (UniProt Q9UPY3)
inactive: [1] -0.042 | [2] 0.014 | [3] -0.03 | [4] 0.072 | [5] -0.013

DHFR (UniProt P00374)
inactive: [1] -0.077 | [2] -0.014 | [3] 0.083 | [4] 0.058 | [5] 0.396

DMBT1 isoform 6 (UniProt Q9UGM3)
inactive: [1] -0.415

DLAT (UniProt P10515)
inactive: [1] 0.124 | [2] -0.168 | [3] -0.098 | [4] -0.029 | [5] 0

DHRS7B (UniProt Q6IAN0)
inactive: [1] 0.054 | [2] 0.032 | [3] -0.001 | [4] -0.018 | [5] -0.013

DEGS1 (UniProt O15121)
inactive: [1] 0.083 | [2] 0.04 | [3] -0.001 | [4] 0.122 | [5] 0.052

DIABLO (UniProt Q9NR28)
inactive: [1] 0.008 | [2] 0.061 | [3] -0.043 | [4] 0.011 | [5] -0.032

DHPS (UniProt M0R1T2)
inactive: [1] -0.155

DERL1 (UniProt Q9BUN8)
inactive: [1] 0.011 | [2] -0.034 | [3] 0.017 | [4] -0.011 | [5] 0.085

DNAH10 (UniProt Q8IVF4)
inactive: [1] 0.09 | [2] 0.103 | [3] 0.062 | [4] -0.131 | [5] 0.031

DHRS2 (UniProt Q13268)
inactive: [1] 0.065 | [2] 0.038 | [3] 0.002 | [4] -0.033 | [5] -0.007

DDB1 isoform 2 (UniProt Q16531)
inactive: [1] 0.028

DFFA isoform 2 (UniProt O00273)
inactive: [1] 0.047

DHX40 (UniProt Q8IX18)
inactive: [1] 0.026 | [2] 0.101 | [3] 0.072 | [4] 0.093 | [5] -0.022

DLG1 isoform 2 (UniProt Q12959)
inactive: [1] -0.086 | [2] 0.029 | [3] 0.056 | [4] 0.068 | [5] -0.021

DIP2A (UniProt Q14689)
inactive: [1] -0.03 | [2] 0.042 | [3] -0.149 | [4] 0.019 | [5] -0.078

DFFA (UniProt O00273)
inactive: [1] -0.02 | [2] 0.017 | [3] 0.042 | [4] -0.031 | [5] 0.01

DECR1 (UniProt E5RJD2)
inactive: [1] 0.079

DHRS4L1 (UniProt P0CG22)
inactive: [1] 0.013 | [2] 0.03 | [3] 0.055 | [4] -0.068 | [5] -0.019

DDX41 (UniProt Q9UJV9)
inactive: [1] -0.004 | [2] -0.005 | [3] -0.106 | [4] -0.059 | [5] -0.004

DHRS1 (UniProt Q96LJ7)
inactive: [1] 0.241 | [2] 0.015 | [3] 0.216 | [4] 0.321 | [5] 0.013

DDAH2 (UniProt O95865)
inactive: [1] 0.011 | [2] 0.117 | [3] 0.067 | [4] -0.091 | [5] -0.023

DIPK2A (UniProt Q8NDZ4)
inactive: [1] -0.109 | [2] 0.173 | [3] 0.056 | [4] 0.059 | [5] -0.036

DHX15 (UniProt O43143)
inactive: [1] 0.007 | [2] 0.023 | [3] -0.013 | [4] -0.002 | [5] -0.024

DDX19B (UniProt Q9UMR2)
inactive: [1] -0.038 | [2] 0.072 | [3] 0.027 | [4] -0.046 | [5] -0.014

DDI2 isoform 3 (UniProt Q5TDH0)
inactive: [1] 0.01 | [2] 0.052 | [3] 0.014 | [4] -0.014 | [5] -0.01

DENND4B (UniProt O75064)
inactive: [1] -0.002 | [2] -0.04 | [3] 0.032 | [4] 0.087 | [5] -0.011

DDX39A (UniProt O00148)
inactive: [1] -0.174 | [2] 0.063 | [3] 0.025 | [4] 0.015 | [5] -0.01

DDX46 (UniProt Q7L014)
inactive: [1] -0.059 | [2] 0.09 | [3] 0.184 | [4] -0.064 | [5] 0

DHX30 isoform 2 (UniProt Q7L2E3)
inactive: [1] 0.022 | [2] -0.238 | [3] -0.148 | [4] 0.125 | [5] 0.065

DDX3X (UniProt O00571)
inactive: [1] 0.119 | [2] -0.185 | [3] -0.122 | [4] 0.279 | [5] 0.03

DMXL2 isoform 3 (UniProt Q8TDJ6)
inactive: [1] 0.2 | [2] 0.072 | [3] 0.096 | [4] 0.143 | [5] 0.072

DDX4 (UniProt Q9NQI0)
inactive: [1] 0.052 | [2] -0.11 | [3] 0.213 | [4] 0.274 | [5] 0.001

DDX39B isoform 2 (UniProt Q13838)
inactive: [1] 0.009 | [2] -0.024 | [3] 0.008 | [4] 0.024 | [5] 0.007

DMAC2 isoform 4 (UniProt Q9NW81)
inactive: [1] 0.03 | [2] 0.033 | [3] -0.002 | [4] -0.042 | [5] -0.038

DDB1 (UniProt Q16531)
inactive: [1] 0.023 | [2] -0.003 | [3] 0.01 | [4] 0 | [5] 0.016

DHPS (UniProt P49366)
inactive: [1] -0.014 | [2] 0.013 | [3] -0.014 | [4] 0.013 | [5] 0.081

DDX56 (UniProt Q9NY93)
inactive: [1] 0.092 | [2] -0.231 | [3] -0.061 | [4] 0.094 | [5] 0.001

DDX1 (UniProt Q92499)
inactive: [1] 0.012 | [2] -0.035 | [3] -0.026 | [4] 0.124 | [5] -0.044

DDT (UniProt P30046)
inactive: [1] -0.004 | [2] 0.2 | [3] 0.078 | [4] -0.126 | [5] 0.037

DDB2 (UniProt Q92466)
inactive: [1] 0.035 | [2] -0.045 | [3] 0.031 | [4] 0.033 | [5] -0.027

DHX8 (UniProt Q14562)
inactive: [1] -0.032 | [2] 0.044 | [3] 0.09 | [4] 0.028 | [5] 0.037

DGAT1 (UniProt O75907)
inactive: [1] -0.088 | [2] 0.105 | [3] 0.081 | [4] -0.119 | [5] 0.102

DIS3 (UniProt Q9Y2L1)
inactive: [1] -0.098 | [2] 0.1 | [3] 0.118 | [4] -0.011 | [5] -0.046

Taken from the entries so far (2 entries):
DMBT1 isoform 6 (UniProt Q9UGM3)
inactive: [1] -0.415

DLAT (UniProt P10515)
inactive: [1] 0.124 | [2] -0.168 | [3] -0.098 | [4] -0.029 | [5] 0

Next entries follow:

DHCR24 (UniProt Q15392)
inactive: [1] 0.099 | [2] -0.035 | [3] 0.14 | [4] 0.036 | [5] -0.012

DNAH5 (UniProt Q8TE73)
inactive: [1] 0.074 | [2] 0.023 | [3] 0.08 | [4] 0.139 | [5] 0.062

DDA1 (UniProt Q9BW61)
inactive: [1] 0.018 | [2] -0.009 | [3] 0.074 | [4] -0.026 | [5] 0.054

DLST (UniProt P36957)
inactive: [1] 0.009 | [2] -0.067 | [3] -0.081 | [4] 0 | [5] 0.05

DENND10 (UniProt Q8TCE6)
inactive: [1] 0.035 | [2] 0.083 | [3] 0.103 | [4] 0.057 | [5] -0.008

DHRS3 (UniProt O75911)
inactive: [1] 0.007 | [2] 0.068 | [3] 0.057 | [4] 0.017 | [5] -0.024
